In article PMC7862473:
Results are given in words; binding and its absence hold for the method and conditions named. Binding seen in cells or lysates may run through a third protein. Some binding calls cover weakened binding; strength is not graded here.

Amino acid sequences for entries named in this document (tags omitted).
UniProt Q9H4G0: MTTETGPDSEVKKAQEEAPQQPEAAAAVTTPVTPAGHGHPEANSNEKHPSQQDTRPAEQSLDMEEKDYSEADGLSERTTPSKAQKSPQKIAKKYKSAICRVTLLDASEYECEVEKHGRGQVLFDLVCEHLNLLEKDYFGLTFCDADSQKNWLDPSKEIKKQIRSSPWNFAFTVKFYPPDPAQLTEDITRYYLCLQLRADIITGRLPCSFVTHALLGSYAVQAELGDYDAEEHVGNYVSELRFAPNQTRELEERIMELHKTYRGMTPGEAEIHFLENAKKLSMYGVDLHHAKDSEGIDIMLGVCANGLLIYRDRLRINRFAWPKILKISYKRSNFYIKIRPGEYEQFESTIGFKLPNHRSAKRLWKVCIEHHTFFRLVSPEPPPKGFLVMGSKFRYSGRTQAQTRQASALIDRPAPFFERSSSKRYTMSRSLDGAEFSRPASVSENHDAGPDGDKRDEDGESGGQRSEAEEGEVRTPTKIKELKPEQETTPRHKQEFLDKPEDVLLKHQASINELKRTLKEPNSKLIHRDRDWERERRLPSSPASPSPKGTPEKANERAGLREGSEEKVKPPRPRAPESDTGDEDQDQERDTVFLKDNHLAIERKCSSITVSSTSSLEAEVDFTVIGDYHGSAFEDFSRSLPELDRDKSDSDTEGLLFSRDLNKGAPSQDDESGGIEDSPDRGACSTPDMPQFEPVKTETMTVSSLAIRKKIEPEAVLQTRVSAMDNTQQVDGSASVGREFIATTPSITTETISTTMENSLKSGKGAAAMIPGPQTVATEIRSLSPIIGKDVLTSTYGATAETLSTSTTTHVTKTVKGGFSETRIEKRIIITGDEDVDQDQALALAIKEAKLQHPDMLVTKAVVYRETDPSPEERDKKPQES
UniProt P63104: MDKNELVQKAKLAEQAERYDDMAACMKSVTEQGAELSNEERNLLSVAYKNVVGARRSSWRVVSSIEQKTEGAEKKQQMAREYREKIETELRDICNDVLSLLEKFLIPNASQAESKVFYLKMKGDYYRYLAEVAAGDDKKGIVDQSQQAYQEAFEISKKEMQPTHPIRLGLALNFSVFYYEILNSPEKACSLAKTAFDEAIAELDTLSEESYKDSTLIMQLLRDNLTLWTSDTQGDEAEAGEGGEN
UniProt Q07812: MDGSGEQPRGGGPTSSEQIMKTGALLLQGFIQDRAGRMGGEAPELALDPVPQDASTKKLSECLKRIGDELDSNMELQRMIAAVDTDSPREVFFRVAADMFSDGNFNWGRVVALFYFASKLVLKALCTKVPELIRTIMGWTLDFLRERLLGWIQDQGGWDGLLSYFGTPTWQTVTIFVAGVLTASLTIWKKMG

Columns and labels:
[1] = target: GST-4.1N (EPB41L1-pGEX-4T-1) (human) (UniProt Q9H4G0); assay: pull-down; GST Protein Interaction Pull-Down Kit (Pierce); GST fusion protein produced in E. coli; complexes visualized by Western blot
[2] = target: 4.1N expressed from EPB41L1-pEGFP in A2780 OE cells (human) (UniProt Q9H4G0); assay: co-IP; A2780 WT and A2780 OE lysates (50 mmol/L Tris-HCl pH 8.0, 150 mmol/L NaCl, 0.2% Nonidet P-40, 2 mmol/L EDTA); 2 µg anti-GFP antibody overnight at 4 °C, protein A/G agarose beads, immunoblot
[3] = target: 14-3-3ζ (human (endogenous in A2780)) (UniProt P63104); assay: co-IP; Co-IP of 14-3-3ζ by agarose beads followed by Western blot with indicated antibodies

binding [1]	binding [2]	binding [3]	Substance
binds	binds	–	14-3-3ζ (from UniProt P63104 1-245)
–	–	binds	Bax (from UniProt Q07812 1-192)
